The target in assay [1] is soluble mouse GPNMB-Fc polypeptide (Fc of human IgG1 or mouse IgG2A, not specified for the assay) (mouse) (UniProt Q99P91). Put plainly: FACS ligand binding assay: 2 ug/mL moGPNMB-Fc pre-complexed with rising Fab2, then SVEC4-10 cells; blocked ligand: unidentified ligand(s) on SVEC4-10 cells; bound GPNMB-Fc detected with anti-human IgG1 secondary.
For assay [2] the target is unchanged. Put plainly: FACS ligand binding assay: 2 ug/mL moGPNMB-Fc pre-complexed with rising Fab2, then SVEC4-10 cells; ligand side: unidentified ligand(s) on SVEC4-10 cells; bound GPNMB-Fc detected with anti-human IgG1 secondary.
The target in assay [3] is soluble human GPNMB-Fc polypeptide (human) (UniProt Q14956). The assay can be described thus: FACS ligand binding assay: 2 ug/mL huGPNMB-Fc pre-complexed with rising Fab2, then SVEC4-10 cells; ligand side: unidentified ligand(s) on SVEC4-10 cells; bound GPNMB-Fc detected with anti-human IgG1 secondary.

Sequences of proteins named here, by UniProt entry; tags and fusion partners are left off. A change or cut given only in a name is not applied to a line headed by its entry. Residues count along the entry.
UniProt Q99P91, residues 23-502: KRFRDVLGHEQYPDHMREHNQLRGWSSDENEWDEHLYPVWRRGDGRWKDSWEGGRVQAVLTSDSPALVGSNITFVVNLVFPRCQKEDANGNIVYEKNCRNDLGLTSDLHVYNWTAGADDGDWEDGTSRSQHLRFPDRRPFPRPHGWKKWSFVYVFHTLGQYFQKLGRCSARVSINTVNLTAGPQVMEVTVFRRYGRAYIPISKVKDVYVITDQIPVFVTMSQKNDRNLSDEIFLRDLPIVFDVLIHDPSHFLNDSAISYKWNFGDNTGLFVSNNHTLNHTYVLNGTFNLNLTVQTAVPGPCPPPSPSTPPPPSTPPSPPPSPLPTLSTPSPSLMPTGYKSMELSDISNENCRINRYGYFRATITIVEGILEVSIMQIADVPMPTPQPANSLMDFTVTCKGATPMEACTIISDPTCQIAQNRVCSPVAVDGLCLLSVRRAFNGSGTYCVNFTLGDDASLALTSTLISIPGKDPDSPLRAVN
UniProt Q14956, residues 23-498: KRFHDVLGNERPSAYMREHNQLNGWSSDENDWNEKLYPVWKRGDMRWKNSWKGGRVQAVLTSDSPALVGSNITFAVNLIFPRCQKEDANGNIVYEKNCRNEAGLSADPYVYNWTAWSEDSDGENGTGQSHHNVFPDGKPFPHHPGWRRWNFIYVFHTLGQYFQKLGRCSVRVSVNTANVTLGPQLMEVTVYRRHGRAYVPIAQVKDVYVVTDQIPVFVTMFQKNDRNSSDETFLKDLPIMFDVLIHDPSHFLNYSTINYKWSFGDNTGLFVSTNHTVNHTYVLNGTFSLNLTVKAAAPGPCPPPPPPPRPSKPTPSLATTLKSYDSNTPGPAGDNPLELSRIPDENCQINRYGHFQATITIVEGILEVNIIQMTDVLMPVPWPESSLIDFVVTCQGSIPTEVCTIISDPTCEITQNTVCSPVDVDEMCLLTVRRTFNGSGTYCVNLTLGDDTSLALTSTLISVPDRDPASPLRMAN
UniProt P01636: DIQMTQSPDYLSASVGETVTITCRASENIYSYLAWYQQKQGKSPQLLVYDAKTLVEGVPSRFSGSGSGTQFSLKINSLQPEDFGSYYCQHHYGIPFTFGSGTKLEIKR

Results are given in words; binding and its absence hold for the method and conditions named. Some entries that bind do so weakly or less than the wild type.

Experimental findings from patent US20250270343A1 are described below.

On to “recombinant Fab2 fragment of anti-GPNMB antibody GPN-52 (from UniProt P01655 1-112)”, for which the binding entry in assay [1] is on record as “binds”.

In the case of “recombinant Fab2 fragment of anti-GPNMB antibody GPN-38 (from UniProt P01636 1-107)”, the binding result in assay [2] and in assay [3] was “binds” throughout. As to “recombinant Fab2 fragment of anti-GPNMB antibody GPN-61 (from UniProt P01655 1-112)”, the binding entry in assay [3] and in assay [1] was “binds” each time.
